# The supplement of paper PMC8728848
# The list shows a part of the results.
# B1: SfaEH (Escherichia coli), Q1RDG5 (protein)
# chain: LLCRNNQTGQVFNSGDTSFRVNVSPVVQYDKSISVLDLSQLVSCQNEDSTGQNYDYLKILKGSGFSPALDTKTYGRLDFTSRPTGYARQLPLQFDLQVTEAFYQYGVWKPFPAKLYLYPAPGVFGKVINNGDLLATLYVNKFSTKGQEAGERNFTWRFYATNDVYIQTGTCRVSSNNVKVDLPSYPGGPVTVPLTVRCDQTQSVSYTLSGPVTGSGNTVFANTAASGSGGVGIQLSDNVGPVPAGQPRSLGQVGSSPVSLGLKASYALTGQASPTPGAVQSVINVTFSYN
# What was measured:
# Assay in all cases: glycan array binding signal (z-score within array); higher = stronger binding
# Settings in all cases: glycan notation: IUPAC condensed, linker removed
# [1] = target: Gal(a1-3)Gal(b1-4)GlcNAc(b1-2)Man
# In short: (§1)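 Columns mapping to the same glycan were averaged after glycan names were converted to IUPAC-condensed notation. The data come from 3228 arrays in the Consortium for Functional Glycomics database, limited to those with an available protein sequence. Binding is reported as a within-array Z-score averaged across arrays of one protein sequence and across linkers.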
# [2] = target: Gal(a1-3)Gal(b1-4)GlcNAc(b1-2)Man(a1-3)[Gal(a1-3)Gal(b1-4)GlcNAc(b1-2)Man(a1-6)]Man(b1-4)GlcNAc(b1-4)GlcNAc
# In short: as §1
# [3] = target: Gal(a1-3)Gal(b1-4)GlcNAc(b1-3)GalNAc
# In short: as §1
# [4] = target: Gal(a1-3)Gal(b1-4)GlcNAc(b1-6)GalNAc
# In short: as §1
# [5] = target: Gal(a1-3)Gal(b1-4)[Fuc(a1-3)]GlcNAc
# In short: as §1
# [6] = target: Gal(a1-3)Gal(b1-4)[Fuc(a1-3)]GlcNAc(b1-2)Man(a1-3)[Gal(a1-3)Gal(b1-4)[Fuc(a1-3)]GlcNAc(b1-2)Man(a1-6)]Man(b1-4)GlcNAc(b1-4)GlcNAc
# In short: as §1
# Gal(a1-3)GalNAc = target: Gal(a1-3)GalNAc
# In short: as §1
# [7] = target: Gal(a1-3)[Gal(a1-4)]Gal(b1-4)GlcNAc
# In short: as §1
# [8] = target: Gal(a1-4)Gal(b1-3)GlcNAc(b1-2)Man(a1-3)[Gal(a1-4)Gal(b1-3)GlcNAc(b1-2)Man(a1-6)]Man(b1-4)GlcNAc(b1-4)GlcNAc
# In short: as §1
# Gal(a1-4)Gal(b1-4)Glc = target: Gal(a1-4)Gal(b1-4)Glc
# In short: as §1
# Gal(a1-4)Gal(b1-4)GlcNAc = target: Gal(a1-4)Gal(b1-4)GlcNAc
# In short: as §1
# [9] = target: Gal(a1-4)Gal(b1-4)GlcNAc(b1-2)Man(a1-3)[Gal(a1-4)Gal(b1-4)GlcNAc(b1-2)Man(a1-6)]Man(b1-4)GlcNAc(b1-4)GlcNAc
# In short: as §1
# [10] = target: Gal(a1-4)Gal(b1-4)GlcNAc(b1-3)Gal(b1-4)Glc
# In short: as §1
# Gal(a1-4)GlcNAc = target: Gal(a1-4)GlcNAc
# In short: as §1
# Gal(a1-6)Glc = target: Gal(a1-6)Glc
# In short: as §1
# Gal(b1-2)Gal = target: Gal(b1-2)Gal
# In short: as §1
# Gal(b1-3)Gal = target: Gal(b1-3)Gal
# In short: as §1
# Gal(b1-3)Gal(b1-4)GlcNAc = target: Gal(b1-3)Gal(b1-4)GlcNAc
# In short: as §1
# Gal(b1-3)GalNAc = target: Gal(b1-3)GalNAc
# In short: as §1
# [11] = target: Gal(b1-3)GalNAc(a1-3)[Fuc(a1-2)]Gal(b1-4)Glc
# In short: as §1
# [12] = target: Gal(b1-3)GalNAc(a1-3)[Fuc(a1-2)]Gal(b1-4)GlcNAc
# In short: as §1
# Gal(b1-3)GalNAc(b1-3)Gal = target: Gal(b1-3)GalNAc(b1-3)Gal
# In short: as §1
# [13] = target: Gal(b1-3)GalNAc(b1-3)Gal(a1-4)Gal(b1-4)Glc
# In short: as §1
# [14] = target: Gal(b1-3)GalNAc(b1-4)Gal(b1-4)Glc
# In short: as §1
# [15] = target: Gal(b1-3)GalNAc(b1-4)[Neu5Ac(a2-3)]Gal(b1-4)Glc
# In short: as §1
# Gal(b1-3)GlcNAc = target: Gal(b1-3)GlcNAc
# In short: as §1
# [16] = target: Gal(b1-3)GlcNAc(a1-3)Gal(b1-4)GlcNAc
# In short: as §1
# [17] = target: Gal(b1-3)GlcNAc(a1-6)Gal(b1-4)GlcNAc
# In short: as §1
# Gal(b1-3)GlcNAc(b1-2)Man = target: Gal(b1-3)GlcNAc(b1-2)Man
# In short: as §1
# [18] = target: Gal(b1-3)GlcNAc(b1-2)Man(a1-3)[Gal(b1-3)GlcNAc(b1-2)Man(a1-6)]Man(b1-4)GlcNAc(b1-4)GlcNAc
# In short: as §1
# [19] = target: Gal(b1-3)GlcNAc(b1-2)Man(a1-3)[Gal(b1-3)GlcNAc(b1-2)Man(a1-6)]Man(b1-4)GlcNAc(b1-4)[Fuc(a1-6)]GlcNAc
# In short: as §1
# [20] = target: Gal(b1-3)GlcNAc(b1-2)Man(a1-3)[GlcNAc(b1-4)][Gal(b1-3)GlcNAc(b1-2)Man(a1-6)]Man(b1-4)GlcNAc(b1-4)GlcNAc
# In short: as §1
# [21] = target: Gal(b1-3)GlcNAc(b1-2)[Gal(b1-3)GlcNAc(b1-6)]Man(a1-6)[Gal(b1-3)GlcNAc(b1-2)Man(a1-3)]Man(b1-4)GlcNAc(b1-4)GlcNAc
# In short: as §1
# [22] = target: Gal(b1-3)GlcNAc(b1-3)Gal(b1-3)GlcNAc
# In short: as §1
# [23] = target: Gal(b1-3)GlcNAc(b1-3)Gal(b1-4)Glc
# In short: as §1
# [24] = target: Gal(b1-3)GlcNAc(b1-3)Gal(b1-4)GlcNAc
# In short: as §1
# [25] = target: Gal(b1-3)GlcNAc(b1-3)Gal(b1-4)GlcNAc(b1-2)Man(a1-3)[Gal(b1-3)GlcNAc(b1-3)Gal(b1-4)GlcNAc(b1-2)Man(a1-6)]Man(b1-4)GlcNAc(b1-4)GlcNAc
# In short: as §1
binder,measurement,setting,value
B1,glycan array binding signal (z-score),[1],0.891
same,glycan array binding signal (z-score),[2],-0.182
same,glycan array binding signal (z-score),[3],-0.067
same,glycan array binding signal (z-score),[4],-0.353
same,glycan array binding signal (z-score),[5],0.171
same,glycan array binding signal (z-score),[6],0.299
same,glycan array binding signal (z-score),Gal(a1-3)GalNAc,0.207
same,glycan array binding signal (z-score),[7],0.735
same,glycan array binding signal (z-score),[8],-0.352
same,glycan array binding signal (z-score),Gal(a1-4)Gal(b1-4)Glc,0.07
same,glycan array binding signal (z-score),Gal(a1-4)Gal(b1-4)GlcNAc,1.13
same,glycan array binding signal (z-score),[9],0.935
same,glycan array binding signal (z-score),[10],1.22
same,glycan array binding signal (z-score),Gal(a1-4)GlcNAc,-0.495
same,glycan array binding signal (z-score),Gal(a1-6)Glc,0.483
same,glycan array binding signal (z-score),Gal(b1-2)Gal,-0.28
same,glycan array binding signal (z-score),Gal(b1-3)Gal,0.077
same,glycan array binding signal (z-score),Gal(b1-3)Gal(b1-4)GlcNAc,0.677
same,glycan array binding signal (z-score),Gal(b1-3)GalNAc,-0.324
same,glycan array binding signal (z-score),[11],-0.503
same,glycan array binding signal (z-score),[12],0.227
same,glycan array binding signal (z-score),Gal(b1-3)GalNAc(b1-3)Gal,-1.46
same,glycan array binding signal (z-score),[13],-0.647
same,glycan array binding signal (z-score),[14],-0.201
same,glycan array binding signal (z-score),[15],-0.012
same,glycan array binding signal (z-score),Gal(b1-3)GlcNAc,-0.752
same,glycan array binding signal (z-score),[16],-0.23
same,glycan array binding signal (z-score),[17],0.644
same,glycan array binding signal (z-score),Gal(b1-3)GlcNAc(b1-2)Man,-0.597
same,glycan array binding signal (z-score),[18],-0.033
same,glycan array binding signal (z-score),[19],-0.377
same,glycan array binding signal (z-score),[20],0.032
same,glycan array binding signal (z-score),[21],-0.525
same,glycan array binding signal (z-score),[22],0.174
same,glycan array binding signal (z-score),[23],-0.847
same,glycan array binding signal (z-score),[24],-0.895
same,glycan array binding signal (z-score),[25],-0.802

# Two entries from above in another layout:
binder	measurement	setting	value
B1	glycan array binding signal (z-score)	Gal(a1-3)GalNAc	0.207
same	glycan array binding signal (z-score)	[7]	0.735
